Binding data for 1 substance are collected here from paper doi:10.1101/2023.06.26.546496.

Sequences of proteins named here, by UniProt entry; tags and fusion partners are left off. Residues count along the entry.
UniProt Q64339, residues 1-155: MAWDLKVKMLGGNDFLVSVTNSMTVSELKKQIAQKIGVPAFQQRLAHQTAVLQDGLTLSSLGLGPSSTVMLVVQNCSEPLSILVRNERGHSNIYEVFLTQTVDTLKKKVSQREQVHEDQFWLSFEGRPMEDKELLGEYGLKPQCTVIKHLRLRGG
UniProt Q9Y5T5, residues 196-823: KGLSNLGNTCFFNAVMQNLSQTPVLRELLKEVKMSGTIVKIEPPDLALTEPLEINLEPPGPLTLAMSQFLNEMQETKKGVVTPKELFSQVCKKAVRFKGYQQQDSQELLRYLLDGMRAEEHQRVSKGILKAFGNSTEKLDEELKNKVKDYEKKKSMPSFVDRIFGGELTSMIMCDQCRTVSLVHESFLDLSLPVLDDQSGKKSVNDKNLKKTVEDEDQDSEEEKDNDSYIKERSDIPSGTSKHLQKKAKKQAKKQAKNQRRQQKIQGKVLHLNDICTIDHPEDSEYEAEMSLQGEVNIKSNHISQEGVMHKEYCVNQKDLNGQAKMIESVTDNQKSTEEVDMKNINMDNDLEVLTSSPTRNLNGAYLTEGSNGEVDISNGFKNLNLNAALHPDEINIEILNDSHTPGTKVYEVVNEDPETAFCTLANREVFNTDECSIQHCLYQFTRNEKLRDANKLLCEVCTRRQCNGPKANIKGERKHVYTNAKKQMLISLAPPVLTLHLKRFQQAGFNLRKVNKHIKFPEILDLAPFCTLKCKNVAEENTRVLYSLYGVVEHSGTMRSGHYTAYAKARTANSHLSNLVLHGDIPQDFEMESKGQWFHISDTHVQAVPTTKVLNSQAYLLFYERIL

The assay addresses Rhodamine-tagged mouse full-length ISG15 propargylamide probe (mouse) (UniProt Q64339). Nature of the assay: activity-based probe labelling.

These are yes or no findings as the source states them, for the method shown. Some binding calls cover weakened binding; strength is not graded here.

In the case of “recombinant human USP16 catalytic domain (CD; aa 196-823) (from UniProt Q9Y5T5 196-823) (domain or fragment)”, the binding result is recorded as “binds”.
